We go through one molecule from patent publication US20060078955A1, “Method for retrieving delta9-THC from oral fluid” (Lin-Zhi International, priority 2004, published 2006).

SMILES strings stand for the structures.

The series in a line: Adsorption of Δ^9-THC from spiked artificial oral fluid to cotton swab, read by G6PDH homogeneous enzyme immunoassay (Hitachi 717). The series is classed as physicochemical. Particulars: for Recovered from swab: oral fluid centrifuged from cotton swab after overnight storage.

As for `CCCCCc1cc(O)c2c(c1)OC(C)(C)[C@@H]1CCC(C)=C[C@@H]21` [Δ^9-THC, Δ^9-tetrahydrocannabinol], the Reference reads like this: (Example 1, 25 ng/ml spiked, no adsorption to collection device) 350 mA/min; (Example 1, 100 ng/ml spiked, no adsorption to collection device) 420 mA/min; (Example 6, 25 ng/ml spiked, no adsorption) 340 mA/min; (Example 6, 50 ng/ml spiked, no adsorption) 400 mA/min; (Example 6, 100 ng/ml spiked, no adsorption) 420 mA/min. Also, the Recovered from swab runs as follows: (Example 1, 25 ng/ml spiked) 321 mA/min; (Example 1, 100 ng/ml spiked) 326 mA/min. For the setting “Example 5, 25, 50, 100 ng/ml spiked, 1 ml, overnight, centrifugation”, the “Δ^9-THC depleted from the sample, i.e., adsorbed to the cotton swab” value was over 95%. Moreover, the “Δ^9-THC adsorbed to the cotton swab” value (Example 6, 25, 50, 100 ng/ml spiked, 2.4 ml, overnight, compressed out) was over 95%.
